{"source": "patent US20260182569A1", "about": "“SMART BIOSTIMULANT DELIVERY FOR PLANT GROWTH AND DEVELOPMENT” (King Abdullah University of Science and Technology, priority 2022, published 2026)", "system": "3T3 cells", "test": "Cytotoxicity analysis, live-dead viability and CCK-8 assays", "type": "cell-based", "conditions": "viability after 24 hours", "from_the_text": "FIG. 10A illustrates a cytotoxicity analysis of precursor molecules, including Zn(NO3)2, 2-MIm, and MiZax-3, according to some embodiments. FIG. 10B illustrates a cytotoxicity analysis of ZIF-8 and ZIF-8@MiZax-3 complexes, according to some embodiments. Assessing the safety of this synthetic platform is critical. Accordingly, it is important to check if any of the materials or degraded building blocks are transferred from the rhizosphere to the actual fruit. For cytotoxicity analysis, live-dead viability and cell counting kit-8 (CCK-8) assays were performed according to the manufacturer's protocol. Briefly, 3T3 cells (1×10^4 cells per well) were seeded onto a 96-well plate. After 24 hours, cells were incubated with different concentrations (0.1, 0.5, 1, 5, 10, and 50 μg/mL) of ZIF-8 and ZIF-8 loaded with MiZax-3. In addition, to evaluate the cytotoxicity of the particles after degradation at low pH, 3T3 cells were incubated with Zn(NO3)2 and 2-MIm at concentrations of (0.01, 0.05, 0.1, 0.5, 1, 5, 10, and 50 μg/mL) and with MiZax-3 at (0.01, 0.05, 0.1, 0.5, 1, 5, 10, and 50 ng/mL). The cell viability was measured after 24 hours.", "note": "Some of these results come from one statement about several compounds together.", "data": [{"smiles": "Cc1ncc[nH]1", "note": "[2-MIm, 2-methylimidazole]", "values": [{"measurement": "Concentration up to which high biocompatibility was exhibited", "result": "up to 10 μg/mL"}]}]}
